Here are results for one compound from patent publication US11560380B2, “Substituted naphthalene diimides and their use” (UCL Business Ltd, priority 2019, dated 2023).

For the experiment, the system named is LNCaP. The experiment can be described thus: 72 hr XTT cell viability assay, LNCaP. In kind it is cell-based. As to conditions: Homo sapiens, read-out: IC50 cell growth inhibition. The text has this: The CyQUANT XTT Cell Viability Assay (Invitrogen) is a complete, optimized assay that generates a consistent colorimetric detection of viable mammalian cells. The assay kit consists of two reagents, XTT Reagent (2,3-bis-(2-methoxy-4-nitro-5-sulfophenyl)-2H-tetrazolium-5-carboxanilide) and Electron Coupling Reagent. XTT Reagent is used to assess cell viability as a function of cellular redox potential, and the electron coupling reagent improves the dynamic range of the assay. The kit was used as per the manufacturers' instructions.

The IC50 is the concentration that inhibits the measured activity by half. Take `CNC(=O)c1ccc(N2C(=S)N(c3ccc(C#N)c(C(F)(F)F)c3)C(=O)C2(C)C)cc1F` [Enzalutamide]: the IC50 turned out to be 4.82 µM.
